Source: the supplement of paper PMC10849652
The list shows a part of the results.

Chains of the proteins cited; added tags and fusions are not shown. Lines headed by an entry give the natural chain unless they say otherwise; changes in a name come on top.
UniProt P49023, whole entry, looked up: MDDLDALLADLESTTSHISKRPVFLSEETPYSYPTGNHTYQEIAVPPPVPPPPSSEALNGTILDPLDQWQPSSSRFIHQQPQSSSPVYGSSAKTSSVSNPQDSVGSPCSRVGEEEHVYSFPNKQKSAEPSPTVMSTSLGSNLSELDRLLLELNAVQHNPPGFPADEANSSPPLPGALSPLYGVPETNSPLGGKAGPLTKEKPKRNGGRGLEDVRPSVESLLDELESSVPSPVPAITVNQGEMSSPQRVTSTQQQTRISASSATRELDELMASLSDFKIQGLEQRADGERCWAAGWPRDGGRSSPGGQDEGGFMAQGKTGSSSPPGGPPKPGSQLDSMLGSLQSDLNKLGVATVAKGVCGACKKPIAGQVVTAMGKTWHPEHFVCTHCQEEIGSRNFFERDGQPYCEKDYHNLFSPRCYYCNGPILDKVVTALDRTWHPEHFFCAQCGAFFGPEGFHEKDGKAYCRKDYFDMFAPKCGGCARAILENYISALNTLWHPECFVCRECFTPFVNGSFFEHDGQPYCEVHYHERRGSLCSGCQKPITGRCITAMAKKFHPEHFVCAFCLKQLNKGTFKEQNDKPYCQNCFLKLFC
UniProt Q9ULZ3, whole entry, looked up: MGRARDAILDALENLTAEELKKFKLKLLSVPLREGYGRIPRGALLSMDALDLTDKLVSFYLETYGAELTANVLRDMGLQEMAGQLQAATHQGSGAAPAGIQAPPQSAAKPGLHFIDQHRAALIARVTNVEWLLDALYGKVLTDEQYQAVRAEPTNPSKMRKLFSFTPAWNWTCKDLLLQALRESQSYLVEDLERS
UniProt P25786: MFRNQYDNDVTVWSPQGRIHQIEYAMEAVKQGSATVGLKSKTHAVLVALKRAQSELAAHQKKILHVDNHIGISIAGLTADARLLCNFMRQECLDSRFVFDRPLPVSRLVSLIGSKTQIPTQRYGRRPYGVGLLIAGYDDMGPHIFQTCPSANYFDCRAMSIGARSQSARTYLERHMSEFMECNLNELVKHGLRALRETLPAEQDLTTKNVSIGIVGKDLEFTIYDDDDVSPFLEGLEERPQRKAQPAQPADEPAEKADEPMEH
UniProt O95456: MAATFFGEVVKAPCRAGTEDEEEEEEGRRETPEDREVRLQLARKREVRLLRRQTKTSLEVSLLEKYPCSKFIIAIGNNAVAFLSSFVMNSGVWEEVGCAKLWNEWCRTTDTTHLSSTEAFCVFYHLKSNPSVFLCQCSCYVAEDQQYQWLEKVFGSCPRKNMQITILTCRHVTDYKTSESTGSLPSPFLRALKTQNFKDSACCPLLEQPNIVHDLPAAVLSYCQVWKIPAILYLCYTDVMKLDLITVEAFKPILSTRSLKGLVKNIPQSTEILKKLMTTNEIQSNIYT
UniProt Q9NXS2: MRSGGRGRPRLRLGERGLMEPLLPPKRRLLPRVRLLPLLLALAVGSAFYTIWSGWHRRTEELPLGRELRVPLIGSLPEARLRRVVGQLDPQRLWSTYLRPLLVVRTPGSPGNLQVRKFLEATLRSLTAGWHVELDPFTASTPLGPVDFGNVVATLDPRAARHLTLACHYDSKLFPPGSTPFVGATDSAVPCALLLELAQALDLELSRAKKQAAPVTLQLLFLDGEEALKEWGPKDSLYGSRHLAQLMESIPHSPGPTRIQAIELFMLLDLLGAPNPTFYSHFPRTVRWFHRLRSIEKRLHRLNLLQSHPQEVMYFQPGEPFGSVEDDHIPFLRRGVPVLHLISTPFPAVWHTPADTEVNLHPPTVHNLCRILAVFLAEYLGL
UniProt Q9BRX8: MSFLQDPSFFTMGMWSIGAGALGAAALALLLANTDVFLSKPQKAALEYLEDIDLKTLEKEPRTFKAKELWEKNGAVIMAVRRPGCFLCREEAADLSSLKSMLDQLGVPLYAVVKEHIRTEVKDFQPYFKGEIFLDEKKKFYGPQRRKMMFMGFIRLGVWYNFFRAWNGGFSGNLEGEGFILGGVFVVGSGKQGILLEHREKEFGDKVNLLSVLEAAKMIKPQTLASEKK
UniProt Q3MIT2: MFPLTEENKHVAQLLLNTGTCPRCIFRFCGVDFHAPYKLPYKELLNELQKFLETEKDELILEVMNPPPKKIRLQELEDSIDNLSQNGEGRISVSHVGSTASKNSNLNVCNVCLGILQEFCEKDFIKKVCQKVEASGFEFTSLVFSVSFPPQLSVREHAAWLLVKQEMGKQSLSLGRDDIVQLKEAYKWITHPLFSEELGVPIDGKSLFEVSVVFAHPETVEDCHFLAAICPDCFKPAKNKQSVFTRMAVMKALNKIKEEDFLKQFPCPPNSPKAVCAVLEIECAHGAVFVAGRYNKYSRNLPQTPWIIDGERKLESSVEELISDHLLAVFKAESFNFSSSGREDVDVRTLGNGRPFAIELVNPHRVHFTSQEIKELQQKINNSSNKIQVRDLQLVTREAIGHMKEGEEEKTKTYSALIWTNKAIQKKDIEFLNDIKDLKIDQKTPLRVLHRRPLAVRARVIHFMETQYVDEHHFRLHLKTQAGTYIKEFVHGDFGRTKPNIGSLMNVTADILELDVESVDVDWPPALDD
UniProt Q99436: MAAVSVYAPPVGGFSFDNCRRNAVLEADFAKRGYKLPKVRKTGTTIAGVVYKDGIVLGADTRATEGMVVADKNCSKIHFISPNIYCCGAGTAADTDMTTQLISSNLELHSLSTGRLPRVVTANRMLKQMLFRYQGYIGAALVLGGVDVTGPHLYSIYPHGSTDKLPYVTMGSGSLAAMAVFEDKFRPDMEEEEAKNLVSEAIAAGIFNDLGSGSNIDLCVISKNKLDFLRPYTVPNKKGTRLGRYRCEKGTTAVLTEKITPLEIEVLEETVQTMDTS
UniProt Q9Y6I8: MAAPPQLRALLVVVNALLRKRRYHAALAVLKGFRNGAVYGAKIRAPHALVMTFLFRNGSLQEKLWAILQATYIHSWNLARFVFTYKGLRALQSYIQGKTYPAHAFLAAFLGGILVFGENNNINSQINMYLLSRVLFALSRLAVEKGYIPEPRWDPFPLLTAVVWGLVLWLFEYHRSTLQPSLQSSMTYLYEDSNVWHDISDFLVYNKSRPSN
UniProt Q15274: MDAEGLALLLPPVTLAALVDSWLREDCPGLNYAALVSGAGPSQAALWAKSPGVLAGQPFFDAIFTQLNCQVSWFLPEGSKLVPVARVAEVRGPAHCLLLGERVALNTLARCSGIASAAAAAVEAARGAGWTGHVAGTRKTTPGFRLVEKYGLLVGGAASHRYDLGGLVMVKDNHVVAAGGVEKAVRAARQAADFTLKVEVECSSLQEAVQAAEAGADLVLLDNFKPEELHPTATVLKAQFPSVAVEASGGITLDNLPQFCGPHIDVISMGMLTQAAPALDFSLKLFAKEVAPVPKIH
UniProt Q6PGN9: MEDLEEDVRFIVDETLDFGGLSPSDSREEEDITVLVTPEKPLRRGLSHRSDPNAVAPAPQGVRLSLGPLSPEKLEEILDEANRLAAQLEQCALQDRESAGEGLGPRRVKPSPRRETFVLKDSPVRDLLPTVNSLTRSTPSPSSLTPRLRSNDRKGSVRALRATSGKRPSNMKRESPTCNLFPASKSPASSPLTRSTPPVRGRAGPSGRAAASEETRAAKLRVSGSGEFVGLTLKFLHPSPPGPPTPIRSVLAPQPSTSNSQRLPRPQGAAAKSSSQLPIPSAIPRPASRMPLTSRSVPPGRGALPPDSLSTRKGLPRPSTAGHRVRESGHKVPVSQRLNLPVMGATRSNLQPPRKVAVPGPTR
UniProt Q6ZRP7: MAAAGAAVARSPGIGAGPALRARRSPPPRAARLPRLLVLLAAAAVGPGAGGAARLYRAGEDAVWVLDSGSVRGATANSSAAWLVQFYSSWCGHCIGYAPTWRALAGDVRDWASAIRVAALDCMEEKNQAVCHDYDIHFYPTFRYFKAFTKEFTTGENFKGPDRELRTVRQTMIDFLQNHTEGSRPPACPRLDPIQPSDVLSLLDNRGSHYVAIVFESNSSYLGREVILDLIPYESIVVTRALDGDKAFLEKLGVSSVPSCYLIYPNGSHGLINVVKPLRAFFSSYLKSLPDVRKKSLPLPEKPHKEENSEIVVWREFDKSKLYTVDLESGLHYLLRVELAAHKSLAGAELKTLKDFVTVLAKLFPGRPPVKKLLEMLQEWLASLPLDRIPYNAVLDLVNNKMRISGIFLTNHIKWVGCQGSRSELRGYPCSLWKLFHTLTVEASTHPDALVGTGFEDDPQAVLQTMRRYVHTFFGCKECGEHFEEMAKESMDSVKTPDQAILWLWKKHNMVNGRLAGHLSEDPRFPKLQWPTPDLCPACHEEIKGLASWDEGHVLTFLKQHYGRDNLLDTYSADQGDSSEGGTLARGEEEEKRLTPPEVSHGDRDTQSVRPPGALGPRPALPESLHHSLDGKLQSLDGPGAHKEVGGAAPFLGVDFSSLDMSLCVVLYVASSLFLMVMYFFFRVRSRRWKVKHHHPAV
UniProt Q53H96: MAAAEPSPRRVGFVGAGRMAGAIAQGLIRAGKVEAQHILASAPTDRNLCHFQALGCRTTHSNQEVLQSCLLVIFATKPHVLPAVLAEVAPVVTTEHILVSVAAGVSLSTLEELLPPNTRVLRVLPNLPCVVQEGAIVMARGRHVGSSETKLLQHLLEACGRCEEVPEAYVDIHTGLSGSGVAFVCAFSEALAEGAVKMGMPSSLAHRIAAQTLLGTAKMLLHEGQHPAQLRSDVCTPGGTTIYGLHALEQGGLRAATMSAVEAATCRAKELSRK
UniProt O95758: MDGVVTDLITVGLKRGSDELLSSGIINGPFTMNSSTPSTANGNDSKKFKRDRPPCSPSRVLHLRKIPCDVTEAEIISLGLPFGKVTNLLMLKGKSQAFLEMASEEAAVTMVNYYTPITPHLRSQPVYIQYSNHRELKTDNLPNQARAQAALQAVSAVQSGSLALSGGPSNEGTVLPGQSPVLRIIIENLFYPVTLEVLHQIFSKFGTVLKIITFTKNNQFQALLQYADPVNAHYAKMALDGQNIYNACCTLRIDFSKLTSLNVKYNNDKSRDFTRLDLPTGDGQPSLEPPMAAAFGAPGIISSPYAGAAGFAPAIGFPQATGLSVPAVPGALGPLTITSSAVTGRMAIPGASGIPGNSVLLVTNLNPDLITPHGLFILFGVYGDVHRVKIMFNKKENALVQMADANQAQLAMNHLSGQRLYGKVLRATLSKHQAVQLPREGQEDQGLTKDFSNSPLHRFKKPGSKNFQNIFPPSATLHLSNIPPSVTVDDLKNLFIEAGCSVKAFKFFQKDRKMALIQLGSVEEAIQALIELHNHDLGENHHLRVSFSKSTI
UniProt Q9H939: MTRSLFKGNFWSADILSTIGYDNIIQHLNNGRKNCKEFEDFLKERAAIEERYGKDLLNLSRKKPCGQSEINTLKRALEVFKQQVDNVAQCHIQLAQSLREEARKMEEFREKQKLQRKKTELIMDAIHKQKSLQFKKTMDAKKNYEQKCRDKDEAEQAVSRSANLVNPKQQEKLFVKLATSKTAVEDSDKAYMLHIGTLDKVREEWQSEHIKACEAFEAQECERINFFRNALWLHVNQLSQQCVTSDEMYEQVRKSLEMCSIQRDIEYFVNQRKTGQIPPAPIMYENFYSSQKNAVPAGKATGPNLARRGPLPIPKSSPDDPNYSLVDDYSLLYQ
UniProt P09417: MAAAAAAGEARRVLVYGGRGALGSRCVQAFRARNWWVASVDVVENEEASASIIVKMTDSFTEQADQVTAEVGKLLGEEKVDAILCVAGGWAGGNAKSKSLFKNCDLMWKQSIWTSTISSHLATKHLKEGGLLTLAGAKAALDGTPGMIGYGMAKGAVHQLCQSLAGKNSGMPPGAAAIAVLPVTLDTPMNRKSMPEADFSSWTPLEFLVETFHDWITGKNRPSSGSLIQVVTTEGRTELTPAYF
UniProt P60900, whole entry, looked up: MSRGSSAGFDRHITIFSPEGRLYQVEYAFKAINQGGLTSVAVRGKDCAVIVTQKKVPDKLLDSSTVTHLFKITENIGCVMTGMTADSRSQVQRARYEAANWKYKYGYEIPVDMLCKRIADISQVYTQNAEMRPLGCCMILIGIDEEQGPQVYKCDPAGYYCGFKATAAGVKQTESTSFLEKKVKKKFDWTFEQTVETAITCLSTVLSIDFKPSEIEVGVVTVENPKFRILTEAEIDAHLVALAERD
UniProt Q96I23: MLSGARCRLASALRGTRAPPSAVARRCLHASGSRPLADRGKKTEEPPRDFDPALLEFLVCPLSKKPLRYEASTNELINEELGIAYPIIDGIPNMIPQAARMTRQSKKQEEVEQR
UniProt Q9BVG9: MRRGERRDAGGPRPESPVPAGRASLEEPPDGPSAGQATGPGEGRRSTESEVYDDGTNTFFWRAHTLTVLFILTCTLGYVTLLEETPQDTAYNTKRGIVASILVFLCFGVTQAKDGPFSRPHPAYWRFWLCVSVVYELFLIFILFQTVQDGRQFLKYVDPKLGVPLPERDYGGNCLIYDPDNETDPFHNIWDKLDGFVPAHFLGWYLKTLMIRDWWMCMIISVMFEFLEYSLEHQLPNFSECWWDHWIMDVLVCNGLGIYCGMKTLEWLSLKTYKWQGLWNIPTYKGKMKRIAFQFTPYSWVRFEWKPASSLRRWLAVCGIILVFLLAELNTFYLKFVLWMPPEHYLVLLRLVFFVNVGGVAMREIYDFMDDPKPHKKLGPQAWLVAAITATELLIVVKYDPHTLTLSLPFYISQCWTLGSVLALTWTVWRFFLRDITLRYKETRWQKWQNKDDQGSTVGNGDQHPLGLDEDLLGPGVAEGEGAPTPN

Key:
Assay in all cases: log2 fold change, soluble protein after heating vs DMSO (PISA); higher = thermal stabilisation; K562 cells, 10 uM, 30 min; active = over 0.2 and 3.5 SD of the protein, either way, in both replicates (recomputed)
[1] = compound: CS(=O)(=O)c1ccc(-c2cnc(N)c(C(=O)Nc3ccccc3)n2)cc1
Summary of the method: (§1)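 K562 cells at 2×10^6 cells/mL were given 10 μM compound for 30 min. Aliquots then went through 3 min of heating across 48°C-58°C, were pooled, and were extracted in PBS with 0.5% NP-40 at 4°C, and the supernatant after 21,000xg for 90 min was quantified by TMTpro 16plex LC-MS/MS with channel sums equalised. Thermal stability relative to control samples, from duplicates, is given as log2 fold change.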

crizotinib = compound: C[C@@H](Oc1cc(-c2cnn(C3CCNCC3)c2)cnc1N)c1c(Cl)ccc(F)c1Cl [crizotinib]
Summary of the method: as §1

[2] = compound: C[C@@H]1COCCN1C2=NC(=NC(=C2)C3(CC3)S(=O)(=O)C)C4=C5C=CNC5=CC=C4
Summary of the method: as §1

[3] = compound: C[C@H](C1=CC=C(C=C1)C(=O)NC2=C3C=CNC3=NC=C2)N
Summary of the method: as §1

duvelisib = compound: C[C@H](Nc1ncnc2nc[nH]c12)c1cc2cccc(Cl)c2c(=O)n1-c1ccccc1 [duvelisib]
Summary of the method: as §1

gandotinib = compound: Cc1cc(Nc2cc(CN3CCOCC3)c3nc(C)c(Cc4ccc(Cl)cc4F)n3n2)n[nH]1 [gandotinib]
Summary of the method: as §1

tozasertib = compound: Cc1cc(Nc2cc(N3CCN(C)CC3)nc(Sc3ccc(NC(=O)C4CC4)cc3)n2)n[nH]1 [tozasertib]
Summary of the method: as §1

[4] = compound: Cc1cc(SCc2sc(-c3ccc(C(F)(F)F)cc3)nc2C)ccc1OCC(=O)O
Summary of the method: as §1

doramapimod = compound: Cc1ccc(-n2nc(C(C)(C)C)cc2NC(=O)Nc2ccc(OCCN3CCOCC3)c3ccccc23)cc1 [doramapimod]
Summary of the method: as §1

ispinesib = compound: Cc1ccc(C(=O)N(CCCN)[C@@H](c2nc3cc(Cl)ccc3c(=O)n2Cc2ccccc2)C(C)C)cc1 [ispinesib]
Summary of the method: as §1

Measured: log2 fold change

PXN (UniProt P49023)
inactive: [1] -0.059 | crizotinib -0.022 | [2] 0.043 | [3] -0.04 | duvelisib 0.01 | gandotinib 0.012 | tozasertib -0.02 | [4] -0.034 | doramapimod -0.091 | ispinesib 0.038

PTPN2 (UniProt P17706)
inactive: [1] 0.012 | crizotinib 0.064 | [2] 0.077 | [3] 0.042 | duvelisib -0.055 | gandotinib -0.065 | tozasertib 0.044 | [4] 0.038 | doramapimod -0.048 | ispinesib 0.056

PYCARD (UniProt Q9ULZ3)
inactive: [1] -0.066 | crizotinib 0.137 | [2] 0.189 | [3] -0.044 | duvelisib 0.064 | gandotinib -0.194 | tozasertib -0.005 | [4] -0.071 | doramapimod 0.033 | ispinesib 0.099

PURB (UniProt Q96QR8)
inactive: [1] 0.034 | crizotinib 0.066 | [2] -0.559 | [3] 0.257 | duvelisib -0.167 | gandotinib 0.155 | tozasertib 0.033 | [4] -0.05 | doramapimod 0.083 | ispinesib -0.191

PSMD4 (UniProt P55036)
inactive: [1] 0.024 | crizotinib 0.011 | [2] -0.057 | [3] 0.047 | duvelisib -0.044 | gandotinib -0.021 | tozasertib 0.029 | [4] 0.014 | doramapimod 0.005 | ispinesib 0.026

PSMA1 isoform 2 (UniProt P25786)
inactive: [1] -0.02 | crizotinib 0.068 | [2] -0.041 | [3] 0.062 | duvelisib -0.035 | gandotinib 0.019 | tozasertib 0.006 | [4] -0.012 | doramapimod -0.009 | ispinesib 0.039

PSMG1 (UniProt O95456)
inactive: [1] -0.011 | crizotinib 0.015 | [2] -0.006 | [3] -0.053 | duvelisib 0.024 | gandotinib -0.023 | tozasertib -0.041 | [4] -0.038 | doramapimod -0.055 | ispinesib 0.048

QPCTL (UniProt Q9NXS2)
inactive: [1] 0.019 | crizotinib 0.002 | [2] -0.005 | [3] 0.093 | duvelisib -0.021 | gandotinib 0.027 | tozasertib -0.065 | [4] 0.082 | doramapimod 0.027 | ispinesib -0.127

Random excerpt: two records from the list, in no set order.
PSMD4 (UniProt P55036)
inactive: [1] 0.024 | crizotinib 0.011 | [2] -0.057 | [3] 0.047 | duvelisib -0.044 | gandotinib -0.021 | tozasertib 0.029 | [4] 0.014 | doramapimod 0.005 | ispinesib 0.026

PURB (UniProt Q96QR8)
inactive: [1] 0.034 | crizotinib 0.066 | [2] -0.559 | [3] 0.257 | duvelisib -0.167 | gandotinib 0.155 | tozasertib 0.033 | [4] -0.05 | doramapimod 0.083 | ispinesib -0.191

Next part.

PRXL2A (UniProt Q9BRX8)
inactive: [1] 0.031 | crizotinib 0.054 | [2] 0.131 | [3] -0.014 | duvelisib 0 | gandotinib -0.212 | tozasertib -0.235 | [4] -0.024 | doramapimod 0.034

PUS10 (UniProt Q3MIT2)
inactive: [1] -0.012 | crizotinib 0.02 | [2] 0.078 | [3] -0.08 | duvelisib 0.008 | gandotinib -0.141 | tozasertib -0.067 | [4] 0.057 | doramapimod 0.024 | ispinesib 0.048

PSMB7 (UniProt Q99436)
inactive: [1] 0.046 | crizotinib 0.067 | [2] -0.055 | [3] 0.037 | duvelisib -0.065 | gandotinib 0.132 | tozasertib 0.001 | [4] 0.004 | doramapimod 0.005 | ispinesib 0.078

PXMP4 (UniProt Q9Y6I8)
inactive: [1] 0 | crizotinib 0.179 | [2] 0.051 | [3] -0.134 | duvelisib 0.035 | gandotinib 0.022 | tozasertib 0.028 | [4] 0.023 | doramapimod -0.088 | ispinesib -0.007

PSAP isoform 3 (UniProt P07602)
inactive: [1] 0.037 | crizotinib -0.023 | [2] 0.138 | [3] -0.02 | duvelisib 0.069 | gandotinib -0.048 | tozasertib 0.033 | [4] 0.002 | doramapimod -0.016 | ispinesib 0.099

QPRT (UniProt Q15274)
inactive: [1] 0.011 | crizotinib 0.027 | [2] 0.127 | [3] -0.002 | duvelisib 0.051 | gandotinib 0.021 | tozasertib -0.004 | [4] -0.033 | doramapimod 0.002 | ispinesib 0.086

PSRC1 (UniProt Q6PGN9)
inactive: [1] -0.036 | crizotinib -0.081 | [2] -0.063 | [3] 0.176 | duvelisib -0.047 | gandotinib -0.178 | tozasertib -0.085 | [4] 0.023 | doramapimod 0.041 | ispinesib -0.039

PTK7 isoform 6 (UniProt Q13308)
inactive: [1] 0.029 | crizotinib 0.099 | [2] 0.135 | [3] -0.002 | duvelisib -0.021 | gandotinib -0.063 | tozasertib 0.014 | [4] -0.067 | doramapimod -0.011 | ispinesib -0.025

PSMB10 (UniProt P40306)
inactive: [1] 0.05

QSOX2 (UniProt Q6ZRP7)
inactive: [1] 0.027 | crizotinib 0.007 | [2] 0.095 | [3] -0.032 | duvelisib 0.054 | gandotinib -0.008 | tozasertib -0.003 | [4] -0.007 | doramapimod 0.008 | ispinesib -0.03

PYCR3 (UniProt Q53H96)
inactive: [1] -0.016 | crizotinib 0.014 | [2] -0.004 | [3] -0.057 | duvelisib 0.025 | gandotinib -0.024 | tozasertib -0.034 | [4] -0.018 | doramapimod -0.022 | ispinesib 0.011

PSMF1 (UniProt Q92530)
inactive: [1] 0.027 | crizotinib 0.019 | [2] 0.076 | [3] 0.016 | duvelisib 0.072 | gandotinib -0.027 | tozasertib -0.069 | [4] -0.038 | doramapimod -0.029 | ispinesib 0.019

PTMS (UniProt P20962)
inactive: [1] -0.025 | crizotinib -0.014 | [2] 0.034 | [3] -0.039 | duvelisib 0.022 | gandotinib 0.055 | tozasertib -0.019 | [4] -0.041 | doramapimod 0.004 | ispinesib 0.052

PTBP3 isoform 4 (UniProt O95758)
inactive: [1] -0.035 | crizotinib 0.063 | [2] -0.002 | [3] -0.022 | duvelisib 0.023 | gandotinib -0.052 | tozasertib 0.026 | [4] 0.086 | doramapimod -0.065 | ispinesib 0.003

PSTPIP2 (UniProt Q9H939)
inactive: [1] 0.056 | crizotinib 0.054 | [2] -0.042 | [3] 0.083 | duvelisib 0.011 | gandotinib 0.028 | tozasertib 0 | [4] 0.011 | doramapimod 0.011 | ispinesib -0.036

PSME3 isoform 2 (UniProt P61289)
inactive: [1] 0.007 | crizotinib 0.029 | [2] -0.013 | [3] -0.052 | duvelisib 0.001 | gandotinib 0.044 | tozasertib -0.022 | [4] -0.04 | doramapimod -0.017 | ispinesib 0.034

PUS3 (UniProt Q9BZE2)
inactive: [1] -0.05 | crizotinib -0.153 | [2] 0.063 | [3] -0.047 | duvelisib 0.07 | gandotinib -0.133 | tozasertib -0.04 | [4] 0.057 | doramapimod 0.042 | ispinesib -0.066

QDPR (UniProt P09417)
inactive: [1] -0.012 | crizotinib 0.037 | [2] -0.013 | [3] -0.028 | duvelisib -0.01 | gandotinib 0.048 | tozasertib -0.034 | [4] -0.021 | doramapimod 0 | ispinesib 0.021

PSMA6 (UniProt P60900)
inactive: [1] -0.026 | crizotinib 0.087 | [2] -0.041 | [3] 0.021 | duvelisib -0.023 | gandotinib 0.013 | tozasertib 0.009 | [4] 0.008 | doramapimod -0.016 | ispinesib 0.064

QARS (UniProt P47897)
inactive: [1] 0.055 | crizotinib -0.074 | [2] -0.377 | [3] 0.478 | duvelisib -0.173 | gandotinib 0.198 | tozasertib 0.013 | [4] 0.081 | doramapimod 0.295 | ispinesib -0.293

PTPN11 isoform 1 (UniProt Q06124)
inactive: [1] -0.002 | crizotinib 0.029 | [2] 0.053 | [3] -0.061 | duvelisib 0.044 | gandotinib 0.026 | tozasertib 0.003 | [4] 0.023 | doramapimod 0.008 | ispinesib 0.045

PYURF (UniProt Q96I23)
inactive: [1] -0.016 | crizotinib 0.064 | [2] 0.031 | [3] 0.032 | duvelisib 0.083 | gandotinib 0.1 | tozasertib -0.043 | [4] -0.111 | doramapimod -0.028

PTDSS2 (UniProt Q9BVG9)
inactive: [1] -0.007 | crizotinib -0.249 | [2] 0.017 | [3] 0.019 | duvelisib -0.034 | gandotinib -0.149 | tozasertib 0.056 | [4] 0.014 | doramapimod 0.036 | ispinesib -0.095
